Laboratory results from patent publication US20090275637.
Negatives hold for the conditions tested. For some assays here: Protein sequences can lack the tags named with them. For some assays here: For at least one entry, the source does not settle the construct or the ends of the probe.

Sequences of proteins named here, by UniProt entry; tags and fusion partners are left off. A change or cut given only in a name is not applied to a line headed by its entry. Residues count along the entry.
UniProt P18031, 1-321: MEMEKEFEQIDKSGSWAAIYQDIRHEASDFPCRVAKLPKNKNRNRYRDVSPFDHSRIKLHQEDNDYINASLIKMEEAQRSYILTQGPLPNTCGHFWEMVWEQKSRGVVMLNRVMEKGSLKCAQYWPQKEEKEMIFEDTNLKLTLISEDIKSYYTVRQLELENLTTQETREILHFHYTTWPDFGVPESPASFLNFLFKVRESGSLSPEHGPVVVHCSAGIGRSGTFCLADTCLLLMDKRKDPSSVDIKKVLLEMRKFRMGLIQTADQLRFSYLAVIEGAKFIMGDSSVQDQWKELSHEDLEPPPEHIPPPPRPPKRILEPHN
UniProt P29350: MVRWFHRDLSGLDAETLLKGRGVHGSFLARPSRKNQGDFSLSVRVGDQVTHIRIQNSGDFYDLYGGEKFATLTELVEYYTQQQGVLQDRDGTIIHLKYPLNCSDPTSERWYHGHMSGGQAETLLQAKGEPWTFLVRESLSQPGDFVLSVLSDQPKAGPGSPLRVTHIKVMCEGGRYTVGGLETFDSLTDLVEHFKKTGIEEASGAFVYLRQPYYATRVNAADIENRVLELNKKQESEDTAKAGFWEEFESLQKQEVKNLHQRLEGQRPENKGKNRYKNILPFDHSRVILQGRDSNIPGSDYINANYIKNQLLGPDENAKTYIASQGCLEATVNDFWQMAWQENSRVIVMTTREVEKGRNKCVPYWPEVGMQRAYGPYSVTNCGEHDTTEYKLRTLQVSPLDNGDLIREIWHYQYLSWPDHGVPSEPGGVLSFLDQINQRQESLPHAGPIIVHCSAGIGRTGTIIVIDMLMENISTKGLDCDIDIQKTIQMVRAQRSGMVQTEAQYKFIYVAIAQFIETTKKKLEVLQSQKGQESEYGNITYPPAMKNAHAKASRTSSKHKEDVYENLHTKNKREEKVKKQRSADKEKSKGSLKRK

Experiments:
Experiment in all cases: inhibition of the protein
PTP1B (Homo sapiens) = PTP1B (Homo sapiens) (UniProt P18031); conditions: no inhibition at 40 and 200 nM; 125 mM NaCl; purified recombinant protein; protein details: N-terminal His6, R&D Systems 1366-PT-050; variant of C13
PTPN7 = molecular target: T1, PTPN7 (UniProt P35236); conditions: no inhibition up to 400 nM; 20 mM NaCl, 5 uM DiFMUP; purified recombinant protein; protein details: GST; label: 32P (binding assay); variant of C13
T1 sequence (looked up, limits assumed): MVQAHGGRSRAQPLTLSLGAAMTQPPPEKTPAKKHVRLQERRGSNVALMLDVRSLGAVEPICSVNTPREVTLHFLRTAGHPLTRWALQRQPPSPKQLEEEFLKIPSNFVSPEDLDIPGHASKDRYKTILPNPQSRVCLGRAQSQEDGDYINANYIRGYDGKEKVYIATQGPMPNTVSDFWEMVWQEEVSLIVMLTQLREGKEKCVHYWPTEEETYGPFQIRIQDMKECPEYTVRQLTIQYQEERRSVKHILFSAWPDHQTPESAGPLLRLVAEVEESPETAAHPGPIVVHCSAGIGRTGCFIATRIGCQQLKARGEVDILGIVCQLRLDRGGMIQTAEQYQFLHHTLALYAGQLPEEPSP

LAR = conditions: no inhibition up to 400 nM; 20 mM NaCl, 5 uM DiFMUP; purified recombinant protein; protein details: GST; label: 32P (binding assay); variant of C13
PTP Sigma = conditions: no inhibition up to 400 nM; 20 mM NaCl, 5 uM DiFMUP; purified recombinant protein; protein details: GST; label: 32P (binding assay); variant of C13
PEST (PTP-PEST) = conditions: no inhibition up to 400 nM; 20 mM NaCl, 5 uM DiFMUP; purified recombinant protein; protein details: GST; label: 32P (binding assay); variant of C13
MKPX = molecular target: T2, MKPX (UniProt Q9NRW4); conditions: no inhibition up to 400 nM; 20 mM NaCl, 5 uM DiFMUP; purified recombinant protein; protein details: GST; label: 32P (binding assay); variant of C13
T2 sequence (looked up, limits assumed): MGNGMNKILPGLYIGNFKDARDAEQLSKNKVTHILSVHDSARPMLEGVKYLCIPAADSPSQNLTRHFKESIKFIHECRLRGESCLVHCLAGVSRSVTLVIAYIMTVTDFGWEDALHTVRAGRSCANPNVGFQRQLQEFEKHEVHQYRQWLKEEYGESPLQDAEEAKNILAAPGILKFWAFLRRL

PTPN13 = conditions: no inhibition up to 400 nM; 20 mM NaCl, 5 uM DiFMUP; purified recombinant protein; protein details: GST; label: 32P (binding assay); variant of C13
SHP-1 = SHP-1 (UniProt P29350); conditions: no inhibition up to 400 nM; 20 mM NaCl, 5 uM DiFMUP; purified recombinant protein; protein details: GST; label: 32P (binding assay); variant of C13

GGGAUCAAUUUGGCAAUCCGCCAC [C13M30]
functional effect of the aptamer (PTP1B (Homo sapiens)): not active

GGGUGUGAUCAAUUUGGCAAUCCGCCACAC [C13M27]
functional effect of the aptamer (PTP1B (Homo sapiens)): not active

GGGAAUUCUGUGAUCAAUUUGGCAAUCCGCCACACGAGUUC [C13M21]
functional effect of the aptamer (PTPN7): not active | functional effect of the aptamer (LAR): not active | functional effect of the aptamer (PTP Sigma): not active | functional effect of the aptamer (PEST (PTP-PEST)): not active | functional effect of the aptamer (MKPX): not active | functional effect of the aptamer (PTPN13): not active | functional effect of the aptamer (SHP-1): not active

GGGUGGCAAUCCGCCA [C13M38]
functional effect of the aptamer (PTP1B (Homo sapiens)): not active

GGGCAAUCCGCC [C13M39]
functional effect of the aptamer (PTP1B (Homo sapiens)): not active
